PubChem BioAssay AID602196 – INSERM, 2012

Test: 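Modifiers of cisplatin sensitivity in A549 cells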
Cell system: human A549 lung cancer cells
Reagents: siRNA pair against human genes
Time to read-out: 48 h transfection before cisplatin; time from cisplatin to read-out not stated
Treatment: cisplatin at a dose killing half of control-siRNA cells; exact dose and duration not given
Measured: 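Cisplatin cell death as a shift from the 50% death seen with control siRNA; siRNAs toxic or growth-blocking alone scored 0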
Reading the numbers: two-siRNA summed score (-2 to +2): higher = both siRNAs protect from cisplatin killing; -2 means both sensitise
Call rule: 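Each siRNA scores 0 if harmful alone by LDH or WST-1, otherwise +1 if it reduces and -1 if it increases cisplatin killing; a gene is active when both siRNAs agree (sum +2 or -2)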
Calls: active = both siRNAs shift cisplatin killing the same way; inactive = no consistent shift, or siRNA harmful alone
This is one part, drawn at random, of about 23,000 reagents. In the full data, 455 (2%) were called active. 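Active includes both protection and sensitisation; some change values fall well beyond the stated -50 to +50 range.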 Entries without a mark were called inactive. Further read-outs or replicates are left out here. The record does not give: the amount of reagent.

gene symbol | two-siRNA summed score (-2 to +2)
FBXL12 | 1
MUSK | 0
DNAH9 | 0
LOC400506 | 0
LOC441128 | 0
LOC387721 | 0
LOC440279 | 1
CAMTA1 | 0
LOC388641 | 0
ATP4A | 0
ZNF407-AS1 | 0
GGT6 | 0
DNMT3A | 0
PSORS1C2 | 0
LOC387756 | 0
TOGARAM2 | 1
MED23 | -1
LOC440761 | 0

Next part (4 carried over from the part before).
gene symbol | two-siRNA summed score (-2 to +2)
LOC387756 | 0
TOGARAM2 | 1
MED23 | -1
LOC440761 | 0
LARP4B | 0
LINC00691 | 0
GLA | -2 (active)
PEX1 | -1
PTGFR | 1
CHURC1 | 0
GAL3ST1 | 0
FBXO2 | 0
APOC4 | 1
LACTB2 | 0
KIAA1729 | 1
TEX47 | 0
LOC388489 | 0
AFF3 | 0
KRT79 | 0
MTRFR | 0
CHODL | 0
GNA12 | 0
GPR148 | 1
SH3PXD2A | 0
CAB39L | 0
